These are yes or no findings as the source states them, for the method shown. In cells and extracts the contact can be indirect. Some results given as binding are weak or reduced against the parent protein; the word gives no strength.
Target: SNCG expressed in cells (MCF7-SNCG, T47D, or COS7 transfected with pCI-SNCG) (UniProt O76070)
Test: co-IP with anti-SNCG antibody from transfected COS7 cells, western blot

The chains behind the UniProt entries cited, without tags or fusion partners. Where a name states a change or a piece, a line headed by the entry shows the natural chain unless it says otherwise.
UniProt O76070: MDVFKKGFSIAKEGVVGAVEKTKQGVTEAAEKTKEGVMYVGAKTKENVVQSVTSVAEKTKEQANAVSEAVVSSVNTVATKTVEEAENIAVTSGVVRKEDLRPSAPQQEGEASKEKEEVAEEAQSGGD
UniProt O60566: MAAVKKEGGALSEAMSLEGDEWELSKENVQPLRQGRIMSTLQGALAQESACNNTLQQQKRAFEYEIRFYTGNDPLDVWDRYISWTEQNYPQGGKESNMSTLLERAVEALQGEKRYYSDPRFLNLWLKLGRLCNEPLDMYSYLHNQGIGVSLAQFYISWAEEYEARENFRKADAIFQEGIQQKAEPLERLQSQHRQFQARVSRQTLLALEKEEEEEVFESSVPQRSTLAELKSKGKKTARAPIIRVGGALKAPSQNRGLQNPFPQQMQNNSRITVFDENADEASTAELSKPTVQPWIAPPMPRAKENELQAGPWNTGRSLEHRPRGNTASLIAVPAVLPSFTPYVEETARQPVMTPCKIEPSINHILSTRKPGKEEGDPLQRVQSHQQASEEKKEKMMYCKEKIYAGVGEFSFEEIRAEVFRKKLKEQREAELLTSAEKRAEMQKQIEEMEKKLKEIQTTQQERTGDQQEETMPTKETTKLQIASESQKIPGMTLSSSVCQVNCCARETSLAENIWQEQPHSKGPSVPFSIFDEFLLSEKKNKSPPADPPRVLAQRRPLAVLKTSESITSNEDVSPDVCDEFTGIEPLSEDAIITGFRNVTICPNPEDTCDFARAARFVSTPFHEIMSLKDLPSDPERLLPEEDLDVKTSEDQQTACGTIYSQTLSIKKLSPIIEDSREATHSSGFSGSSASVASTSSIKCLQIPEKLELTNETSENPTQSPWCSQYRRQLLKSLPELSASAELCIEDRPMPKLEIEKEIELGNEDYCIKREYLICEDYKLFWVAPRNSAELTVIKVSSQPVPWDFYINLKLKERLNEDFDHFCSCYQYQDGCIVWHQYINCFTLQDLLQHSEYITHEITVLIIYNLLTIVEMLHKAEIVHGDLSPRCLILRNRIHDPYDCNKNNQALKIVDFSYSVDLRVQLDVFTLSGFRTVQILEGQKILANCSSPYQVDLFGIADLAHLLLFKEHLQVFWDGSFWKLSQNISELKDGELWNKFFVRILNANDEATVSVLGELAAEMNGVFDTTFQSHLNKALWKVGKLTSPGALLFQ

In the case of “myc-tagged BubR1 (from UniProt O60566 1-1050) (enzyme)”, the binding is reported as “binds”.

Source: patent US7897568B2, “Compositions for treatment of cancer” (priority 2006, dated 2011)
